Results from patent US10435439B2, “Peptide with safer secondary structure, peptide library, and production methods for same” (The University of Tokyo, priority 2010, dated 2019).
At least one structure is not confirmed: it was looked up by name or label, or the drawing left a doubt. *1 amine or outer side, *2 acyl side, *3 side chain or, on linkers, in order; H or OH if unused. Where a SMILES comes first, the peptide text is derived from it. Bridges are numbered along the chain shown (N, C = ends). [ ]: non-standard residue; d: D form. Nle(4-yne,6-yl) = O=C([C@H](CC#CC[*:3])N[*:1])[*:2]

Chains of the proteins cited; added tags and fusions are not shown.
UniProt P10415, whole entry: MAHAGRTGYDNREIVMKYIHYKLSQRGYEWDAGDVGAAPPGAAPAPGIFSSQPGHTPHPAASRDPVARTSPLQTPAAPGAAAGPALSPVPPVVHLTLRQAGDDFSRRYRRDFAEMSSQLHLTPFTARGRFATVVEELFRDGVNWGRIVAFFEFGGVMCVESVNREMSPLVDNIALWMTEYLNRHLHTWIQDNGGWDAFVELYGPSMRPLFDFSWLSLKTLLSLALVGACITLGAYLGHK

Biological target: Bcl-2 protein having His tag on the C terminal side (Homo sapiens, UniProt P10415)
Assay: Binding ability to Bcl-2 by SPR (Surface Plasmon Resonance), dissociation constant
Settings: His-tagged Bcl-2 immobilized on Ni substrate, solid-phase synthesized peptide, KD from binding and dissociation rates
Procedure: Next, a crosslinked peptide having the amino acid sequence as shown in the above table was synthesized by using a Fmoc solid-phase method and its binding ability was evaluated by calculating a dissociation constant (KD) in accordance with an evaluation method using SPR (Surface Plasmon Resonance).
Described specifically, first, a solution containing NiCl2 was applied on a substrate to which Ni could be bound and then Bcl-2 protein having His tag on the C terminal side thereof was applied to immobilize the protein on the substrate. Then, a solution containing a solid-phase synthesized peptide was added successively while appropriately changing the concentration. During addition, a change in refractive index depending on the weight on the substrate was read and bond strength was evaluated based on the binding rate and dissociation rate of the peptide calculated.

Question: For `CC[C@H](C)[C@@H]1NC(=O)[C@H]([C@@H](C)O)NC(=O)[C@@H](NC(=O)[C@H](Cc2c[nH]cn2)NC(=O)[C@@H]2CCCN2C(=O)[C@H](Cc2ccccc2)NC(C)=O)CC#CCSC[C@@H](C(=O)N[C@@H](CCCNC(=N)N)C(=O)N[C@@H](C)C(=O)N[C@@H](CC(=O)O)C(=O)N[C@@H](CO)C(=O)N[C@@H](Cc2ccc(O)cc2)C(=O)N[C@@H](CC(=O)O)C(=O)N[C@@H](CO)C(=O)N[C@@H](Cc2ccc(O)cc2)C(=O)N[C@H](C(=O)N[C@@H](CCCNC(=N)N)C(=O)N[C@@H](CC(C)C)C(=O)N[C@H](C(=O)N[C@@H](C)C(=O)N[C@H](C(=O)N[C@@H](Cc2ccccc2)C(=O)N[C@@H](CCCNC(=N)N)C(N)=O)[C@@H](C)O)C(C)C)C(C)C)NC(=O)[C@H](C)NC1=O` [A-2] (Ac-FPH[Nle(4-yne,6-yl)]TIACRADSYDSYVRLVATFR-NH2; thioether 4-8), which Kd is on record?
Answer: 0.14 nM
